Test results as given in publication PMC10661027, “Tuning Plant Promoters Using a Simple Split Luciferase Method to Assess Transcription Factor-DNA Interactions”.
For at least one entry, the source does not settle the construct or the ends of the probe. For some of these results: A weaker result is weaker than the reference pair of the same experiment. For some of these results: At least one verdict was read from the data and is not stated in words by the source. For some of these results: Protein sequences can lack the tags named with them.

Sequences of proteins named here, by UniProt entry; tags and fusion partners are left off. A change or cut given only in a name is not applied to a line headed by its entry.
UniProt Q9C5W9: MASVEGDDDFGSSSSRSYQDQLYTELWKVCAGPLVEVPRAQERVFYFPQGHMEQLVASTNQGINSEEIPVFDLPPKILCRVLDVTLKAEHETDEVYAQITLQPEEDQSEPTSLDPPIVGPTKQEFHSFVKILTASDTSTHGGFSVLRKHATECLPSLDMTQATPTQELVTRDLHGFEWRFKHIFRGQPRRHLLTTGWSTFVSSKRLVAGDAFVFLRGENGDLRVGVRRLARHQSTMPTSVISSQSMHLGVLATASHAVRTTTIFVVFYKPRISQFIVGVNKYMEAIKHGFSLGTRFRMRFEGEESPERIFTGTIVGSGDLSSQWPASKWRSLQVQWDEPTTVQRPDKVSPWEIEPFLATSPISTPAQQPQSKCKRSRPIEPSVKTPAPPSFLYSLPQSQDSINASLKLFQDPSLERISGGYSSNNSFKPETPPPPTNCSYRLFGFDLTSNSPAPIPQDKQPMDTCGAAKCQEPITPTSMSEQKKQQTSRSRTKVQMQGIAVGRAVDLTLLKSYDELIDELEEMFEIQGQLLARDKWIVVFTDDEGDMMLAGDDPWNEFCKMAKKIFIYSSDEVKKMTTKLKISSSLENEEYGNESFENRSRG

Experiments:
[1] = biological target: T1, AtTGA1:HiBiT (Arabidopsis thaliana) (UniProt Q39237); assay: qTFD (HiBiT luminescence microplate); settings: reference for rQ normalisation; qTFD: 25 mM Tris-HCl pH 8.0, 100 mM KCl, 2 mM DTT, 1 mM EDTA, 0.1% BSA, 500 ng poly(dI-dC), 5% glycerol, 0.05% IGEPAL CA630, 1.5-50 nM protein, 1-3 h, room temperature; recombinant protein
T1 sequence (looked up, limits assumed): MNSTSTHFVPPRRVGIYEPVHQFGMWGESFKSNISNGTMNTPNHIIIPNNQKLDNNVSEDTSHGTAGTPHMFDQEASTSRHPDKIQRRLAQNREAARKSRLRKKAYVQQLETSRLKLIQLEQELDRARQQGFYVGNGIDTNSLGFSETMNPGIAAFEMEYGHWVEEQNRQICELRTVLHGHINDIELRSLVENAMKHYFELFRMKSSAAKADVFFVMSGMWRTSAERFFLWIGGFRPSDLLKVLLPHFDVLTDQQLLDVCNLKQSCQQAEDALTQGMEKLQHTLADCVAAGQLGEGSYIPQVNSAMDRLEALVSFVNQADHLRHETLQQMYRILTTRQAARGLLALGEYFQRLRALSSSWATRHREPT

[2] = biological target: T2, ANAC032:HiBiT (UniProt Q9CAR0); assay: qTFD (HiBiT luminescence microplate); settings: qTFD: 25 mM Tris-HCl pH 8.0, 100 mM KCl, 2 mM DTT, 1 mM EDTA, 0.1% BSA, 500 ng poly(dI-dC), 5% glycerol, 0.05% IGEPAL CA630, 1.5-50 nM protein, 1-3 h, room temperature; recombinant protein
T2 sequence (looked up, limits assumed): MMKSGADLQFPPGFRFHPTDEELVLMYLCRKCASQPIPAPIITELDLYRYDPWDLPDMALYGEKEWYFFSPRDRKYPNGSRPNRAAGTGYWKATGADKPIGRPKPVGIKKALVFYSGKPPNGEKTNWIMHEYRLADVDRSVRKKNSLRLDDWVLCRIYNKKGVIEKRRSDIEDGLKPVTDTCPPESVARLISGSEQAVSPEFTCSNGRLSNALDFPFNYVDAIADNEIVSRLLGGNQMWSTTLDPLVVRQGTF

[3] = biological target: T3, NLP7:HiBiT (UniProt Q84TH9); assay: qTFD (HiBiT luminescence microplate); settings: qTFD: 25 mM Tris-HCl pH 8.0, 100 mM KCl, 2 mM DTT, 1 mM EDTA, 0.1% BSA, 500 ng poly(dI-dC), 5% glycerol, 0.05% IGEPAL CA630, 1.5-50 nM protein, 1-3 h, room temperature; recombinant protein
T3 sequence (looked up, limits assumed): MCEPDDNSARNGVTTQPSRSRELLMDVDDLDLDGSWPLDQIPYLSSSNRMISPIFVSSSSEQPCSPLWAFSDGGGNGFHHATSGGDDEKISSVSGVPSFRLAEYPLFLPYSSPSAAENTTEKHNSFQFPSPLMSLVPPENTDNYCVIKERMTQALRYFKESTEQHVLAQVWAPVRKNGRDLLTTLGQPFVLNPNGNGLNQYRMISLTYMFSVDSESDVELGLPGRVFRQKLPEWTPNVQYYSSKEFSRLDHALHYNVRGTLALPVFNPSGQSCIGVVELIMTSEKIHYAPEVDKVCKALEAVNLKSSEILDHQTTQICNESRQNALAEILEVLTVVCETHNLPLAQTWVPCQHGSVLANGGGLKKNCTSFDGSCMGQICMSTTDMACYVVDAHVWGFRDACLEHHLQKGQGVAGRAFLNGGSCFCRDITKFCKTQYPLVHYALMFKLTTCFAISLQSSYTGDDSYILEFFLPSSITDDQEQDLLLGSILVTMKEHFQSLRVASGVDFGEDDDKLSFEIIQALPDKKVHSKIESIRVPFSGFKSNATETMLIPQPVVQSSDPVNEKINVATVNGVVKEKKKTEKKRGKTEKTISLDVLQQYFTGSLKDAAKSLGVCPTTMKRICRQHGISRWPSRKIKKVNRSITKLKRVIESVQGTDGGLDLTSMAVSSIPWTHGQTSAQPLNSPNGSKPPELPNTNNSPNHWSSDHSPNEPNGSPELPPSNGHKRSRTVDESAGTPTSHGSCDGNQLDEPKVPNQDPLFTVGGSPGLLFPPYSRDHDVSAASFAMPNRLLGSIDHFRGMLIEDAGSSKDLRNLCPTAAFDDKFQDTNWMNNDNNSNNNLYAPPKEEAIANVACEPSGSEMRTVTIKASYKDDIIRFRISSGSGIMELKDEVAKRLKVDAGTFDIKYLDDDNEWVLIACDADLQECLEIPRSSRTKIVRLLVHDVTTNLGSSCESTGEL

[4] = biological target: T4, NLP6:HiBiT (UniProt Q8RWY4); assay: qTFD (HiBiT luminescence microplate); settings: qTFD: 25 mM Tris-HCl pH 8.0, 100 mM KCl, 2 mM DTT, 1 mM EDTA, 0.1% BSA, 500 ng poly(dI-dC), 5% glycerol, 0.05% IGEPAL CA630, 1.5-50 nM protein, 1-3 h, room temperature; recombinant protein
T4 sequence (looked up, limits assumed): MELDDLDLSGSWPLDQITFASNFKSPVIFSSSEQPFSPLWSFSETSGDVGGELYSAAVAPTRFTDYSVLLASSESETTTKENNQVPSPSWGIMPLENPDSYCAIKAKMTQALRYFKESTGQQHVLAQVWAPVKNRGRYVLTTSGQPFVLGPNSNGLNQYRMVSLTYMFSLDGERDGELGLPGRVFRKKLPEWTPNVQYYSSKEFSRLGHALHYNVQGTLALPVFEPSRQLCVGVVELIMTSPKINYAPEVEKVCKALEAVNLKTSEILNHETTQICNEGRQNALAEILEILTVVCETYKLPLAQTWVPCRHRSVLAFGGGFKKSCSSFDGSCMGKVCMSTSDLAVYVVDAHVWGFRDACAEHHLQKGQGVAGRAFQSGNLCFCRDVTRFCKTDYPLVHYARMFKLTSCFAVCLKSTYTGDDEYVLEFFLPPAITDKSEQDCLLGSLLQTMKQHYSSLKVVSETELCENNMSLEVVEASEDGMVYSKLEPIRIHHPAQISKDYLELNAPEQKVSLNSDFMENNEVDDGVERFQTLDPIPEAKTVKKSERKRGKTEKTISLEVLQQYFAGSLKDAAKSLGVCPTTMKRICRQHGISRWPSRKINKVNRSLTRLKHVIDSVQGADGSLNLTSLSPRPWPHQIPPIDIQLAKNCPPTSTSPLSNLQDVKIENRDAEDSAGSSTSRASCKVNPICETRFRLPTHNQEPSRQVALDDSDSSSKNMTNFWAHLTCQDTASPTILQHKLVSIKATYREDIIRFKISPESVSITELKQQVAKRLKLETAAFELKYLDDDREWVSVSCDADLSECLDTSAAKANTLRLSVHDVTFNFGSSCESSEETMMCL

[5] = biological target: ARF18:HiBiT (UniProt Q9C5W9); assay: qTFD (HiBiT luminescence microplate); settings: qTFD: 25 mM Tris-HCl pH 8.0, 100 mM KCl, 2 mM DTT, 1 mM EDTA, 0.1% BSA, 500 ng poly(dI-dC), 5% glycerol, 0.05% IGEPAL CA630, 1.5-50 nM protein, 1-3 h, room temperature; recombinant protein
[6] = biological target: T1, AtTGA1:HiBiT (Arabidopsis thaliana); assay: qTFD (HiBiT luminescence microplate, relative to rnd); settings: weak rQ; qTFD: 25 mM Tris-HCl pH 8.0, 100 mM KCl, 2 mM DTT, 1 mM EDTA, 0.1% BSA, 500 ng poly(dI-dC), 5% glycerol, 0.05% IGEPAL CA630, 1.5-50 nM protein, 1-3 h, room temperature; recombinant protein
[7] = biological target: ARF18:HiBiT (UniProt Q9C5W9); assay: as above; settings: qTFD: 25 mM Tris-HCl pH 8.0, 100 mM KCl, 2 mM DTT, 1 mM EDTA, 0.1% BSA, 500 ng poly(dI-dC), 5% glycerol, 0.05% IGEPAL CA630, 1.5-50 nM protein, 1-3 h, room temperature; recombinant protein
[8] = biological target: T3, NLP7:HiBiT; assay: as above; settings: qTFD: 25 mM Tris-HCl pH 8.0, 100 mM KCl, 2 mM DTT, 1 mM EDTA, 0.1% BSA, 500 ng poly(dI-dC), 5% glycerol, 0.05% IGEPAL CA630, 1.5-50 nM protein, 1-3 h, room temperature; recombinant protein
[9] = biological target: T4, NLP6:HiBiT; assay: as above; settings: qTFD: 25 mM Tris-HCl pH 8.0, 100 mM KCl, 2 mM DTT, 1 mM EDTA, 0.1% BSA, 500 ng poly(dI-dC), 5% glycerol, 0.05% IGEPAL CA630, 1.5-50 nM protein, 1-3 h, room temperature; recombinant protein
[10] = biological target: T2, ANAC032:HiBiT; assay: as above; settings: qTFD: 25 mM Tris-HCl pH 8.0, 100 mM KCl, 2 mM DTT, 1 mM EDTA, 0.1% BSA, 500 ng poly(dI-dC), 5% glycerol, 0.05% IGEPAL CA630, 1.5-50 nM protein, 1-3 h, room temperature; recombinant protein

TAGCGAAGTACGATCCCATGAAGACGCTGGGTTTACATGGGAATGGTGCTTCTGTTCTAACAGGCTAGGATATAAGGCCATCACGCAGTA (double strand) [Random (rnd)]
binding result [1]: binds more weakly | binding result [2]: binds more weakly | binding result [3]: binds more weakly | binding result [4]: binds more weakly | binding result [5]: binds more weakly

TAGCGAAGTACGATCCCAACACGCACTTAGTGCCTAATTACGTCTTAATTTAATATTTTTTAAAGCGGCCATCACGCAGTA (double strand) [TFBS_12]
binding result [6]: binds more weakly

CCTTTTGTCTCCCTTTTGTCTCCCTTTTGTCTCCCTTTTGTCTCCCTTTTGTCTCCCTTTTGTCTCCCTTTTGTCTC (double strand) [DR5(7X)]
binding result [7]: binds

TAGCGAAGTACGATCCCATCAAAGAGAAACAACTTGACCCTTTACATTGCTCAAGAGCTCATCTCTTCCCTCTACGGCCATCACGCAGTA (double strand) [NIR1]
binding result [8]: binds | binding result [9]: binds

TAGCGAAGTACGATCCCATGAAGACGGAGGTAAGCAAATTGATCACGCAACTGGTGGATATAAGGCCATCACGCAGTA (double strand) [ANAC032SO1]
binding result [10]: binds
